# According to the supplement of paper PMC11438910:
# The other results are listed elsewhere or left out. Most of these values are background signal.
# B1: 4-99.2 (protein)
# chain 1: QVQLQESGPGLVKPSETLSLTCAVSGYSIRSAYEWGWIRQPPGKGLEYIGYISGESGNTYYSPSLKSRVTISRDTSKNQFSLRLSSVTAADSAVYYCARRGQLIGFDFWGQGVLVTVSS
# chain 2: QAAPTQPPSVSGSPGQSVTISCTGTSSDIGYYNAVSWYQHLPGKAPKLMIYEVSKRPSGVSDRFSGSKSGNTASLTISGLQAEDEADYYCSSYAGSNTYIFGAGTRLTVL
# Assays:
# Experiment in all cases: fluorescence intensity of antibody binding to polysaccharide-coupled beads; higher = stronger binding
# [1] = target: pneumococcal polysaccharide Pn15B
# [2] = target: pneumococcal polysaccharide Pn15C
# [3] = target: pneumococcal polysaccharide Pn15F
# [4] = target: pneumococcal polysaccharide Pn16A
# [5] = target: pneumococcal polysaccharide Pn16F
# [6] = target: pneumococcal polysaccharide Pn17A
# [7] = target: pneumococcal polysaccharide Pn17F
# [8] = target: pneumococcal polysaccharide Pn18A
# [9] = target: pneumococcal polysaccharide Pn18B
# [10] = target: pneumococcal polysaccharide Pn18C
# [11] = target: pneumococcal polysaccharide Pn18F
# [12] = target: pneumococcal polysaccharide Pn19A
# [13] = antibody concentration 2337.65 ng/mL
# [14] = antibody concentration 12500 ng/mL
# [15] = antibody concentration 0.1 ng/mL
# [16] = antibody concentration 0.534724 ng/mL
# [17] = antibody concentration 2.8593 ng/mL
# [18] = antibody concentration 15.2894 ng/mL
# [19] = antibody concentration 81.7561 ng/mL
# [20] = antibody concentration 437.17 ng/mL
binder,measurement,setting,value
B1,fluorescence intensity,[1]; [13],22 MFI
same,fluorescence intensity,[1]; [14],27 MFI
same,fluorescence intensity,[2]; [15],16.2 MFI
same,fluorescence intensity,[2]; [16],17.5 MFI
same,fluorescence intensity,[2]; [17],15.5 MFI
same,fluorescence intensity,[2]; [18],15.8 MFI
same,fluorescence intensity,[2]; [19],15 MFI
same,fluorescence intensity,[2]; [20],16.5 MFI
same,fluorescence intensity,[2]; [13],19.5 MFI
same,fluorescence intensity,[2]; [14],22.5 MFI
same,fluorescence intensity,[3]; [15],16.5 MFI
same,fluorescence intensity,[3]; [16],16.5 MFI
same,fluorescence intensity,[3]; [17],16.5 MFI
same,fluorescence intensity,[3]; [18],16.5 MFI
same,fluorescence intensity,[3]; [19],18.5 MFI
same,fluorescence intensity,[3]; [20],16.5 MFI
same,fluorescence intensity,[3]; [13],18.5 MFI
same,fluorescence intensity,[3]; [14],25.2 MFI
same,fluorescence intensity,[4]; [15],15.2 MFI
same,fluorescence intensity,[4]; [16],15.5 MFI
same,fluorescence intensity,[4]; [17],13.5 MFI
same,fluorescence intensity,[4]; [18],12.8 MFI
same,fluorescence intensity,[4]; [19],13.5 MFI
same,fluorescence intensity,[4]; [20],14.2 MFI
same,fluorescence intensity,[4]; [13],17.8 MFI
same,fluorescence intensity,[4]; [14],20.5 MFI
same,fluorescence intensity,[5]; [15],22 MFI
same,fluorescence intensity,[5]; [16],22 MFI
same,fluorescence intensity,[5]; [17],24.5 MFI
same,fluorescence intensity,[5]; [18],20 MFI
same,fluorescence intensity,[5]; [19],22.8 MFI
same,fluorescence intensity,[5]; [20],25 MFI
same,fluorescence intensity,[5]; [13],25.5 MFI
same,fluorescence intensity,[5]; [14],32 MFI
same,fluorescence intensity,[6]; [15],20 MFI
same,fluorescence intensity,[6]; [16],20.8 MFI
same,fluorescence intensity,[6]; [17],20.5 MFI
same,fluorescence intensity,[6]; [18],19.5 MFI
same,fluorescence intensity,[6]; [19],21 MFI
same,fluorescence intensity,[6]; [20],18.5 MFI
same,fluorescence intensity,[6]; [13],20 MFI
same,fluorescence intensity,[6]; [14],23.8 MFI
same,fluorescence intensity,[7]; [15],25 MFI
same,fluorescence intensity,[7]; [16],25.5 MFI
same,fluorescence intensity,[7]; [17],25 MFI
same,fluorescence intensity,[7]; [18],24.5 MFI
same,fluorescence intensity,[7]; [19],22.8 MFI
same,fluorescence intensity,[7]; [20],27.8 MFI
same,fluorescence intensity,[7]; [13],26.5 MFI
same,fluorescence intensity,[7]; [14],29.5 MFI
same,fluorescence intensity,[8]; [15],22.5 MFI
same,fluorescence intensity,[8]; [16],21.8 MFI
same,fluorescence intensity,[8]; [17],24 MFI
same,fluorescence intensity,[8]; [18],23.8 MFI
same,fluorescence intensity,[8]; [19],20.8 MFI
same,fluorescence intensity,[8]; [20],23 MFI
same,fluorescence intensity,[8]; [13],24.2 MFI
same,fluorescence intensity,[8]; [14],28.8 MFI
same,fluorescence intensity,[9]; [15],29.5 MFI
same,fluorescence intensity,[9]; [16],29 MFI
same,fluorescence intensity,[9]; [17],30.5 MFI
same,fluorescence intensity,[9]; [18],28.5 MFI
same,fluorescence intensity,[9]; [19],31.5 MFI
same,fluorescence intensity,[9]; [20],32 MFI
same,fluorescence intensity,[9]; [13],28 MFI
same,fluorescence intensity,[9]; [14],36.5 MFI
same,fluorescence intensity,[10]; [15],17.5 MFI
same,fluorescence intensity,[10]; [16],18.5 MFI
same,fluorescence intensity,[10]; [17],18 MFI
same,fluorescence intensity,[10]; [18],17.2 MFI
same,fluorescence intensity,[10]; [19],17 MFI
same,fluorescence intensity,[10]; [20],18.2 MFI
same,fluorescence intensity,[10]; [13],20.5 MFI
same,fluorescence intensity,[10]; [14],30.2 MFI
same,fluorescence intensity,[11]; [15],20.5 MFI
same,fluorescence intensity,[11]; [16],23 MFI
same,fluorescence intensity,[11]; [17],21.5 MFI
same,fluorescence intensity,[11]; [18],20.5 MFI
same,fluorescence intensity,[11]; [19],20.8 MFI
same,fluorescence intensity,[11]; [20],23.2 MFI
same,fluorescence intensity,[11]; [13],24.5 MFI
same,fluorescence intensity,[11]; [14],32 MFI
same,fluorescence intensity,[12]; [15],17 MFI
same,fluorescence intensity,[12]; [16],17.5 MFI
same,fluorescence intensity,[12]; [17],18 MFI
same,fluorescence intensity,[12]; [18],18 MFI
same,fluorescence intensity,[12]; [19],17.5 MFI
same,fluorescence intensity,[12]; [20],19.8 MFI
same,fluorescence intensity,[12]; [13],19.5 MFI
same,fluorescence intensity,[12]; [14],24.5 MFI

# Five neighbouring records already listed:
binder,measurement,setting,value
B1,fluorescence intensity,[9]; [18],28.5 MFI
same,fluorescence intensity,[9]; [19],31.5 MFI
same,fluorescence intensity,[9]; [20],32 MFI
same,fluorescence intensity,[9]; [13],28 MFI
same,fluorescence intensity,[9]; [14],36.5 MFI
